Entries after “also recorded” stand apart in the source; their conditions may differ. Further values from the same series stand in other lists.
Key:
[1] = M4N solubility in water miscible organic solvents up to 48 hours, RP-HPLC; assay type: physicochemical
Description: To prepare M4N samples, 200 μL of 100 mg/mL M4N dissolved in acetone were placed in 1.5 mL polypropylene microtubes. The solvent was allowed to evaporate at room temperature for 48 hours until the samples were completely dry.
The water miscible organic solvent formulations were prepared in 15 mL polypropylene centrifuge tubes. 10 mL of each formulation was prepared. Each solvent was added on the basis of weight using its respective density at 25° C. Following brief mixing, each formulation was filtered through a 0.45 μm surfactant free cellulose acetate (“SFCA”) filter into a fresh 15 mL tube. Formulations were kept at room temperature until ready for use.
At each time point, the samples were centrifuged for 2 minutes at 13,000 rpm to pellet any solid M4N. As noted in Table 25, over half of the formulation conditions examined were able to solubilize M4N to a concentration of greater than 10 mg/Ml.

[2] = M4N stability in 11-14 mg/mL PEG 300/HP-β-CD solutions, 24 hours room temperature, RP-HPLC; assay type: physicochemical; conditions: 11-14 mg/mL M4N, 25% PEG 300 and 30% HP-β-CD
Description: To support manufacturing specifications, this study examined the 24-hour room temperature stability of combinations of PEG 300/HP-β-CD at varying M4N target concentrations. Stock samples of M4N stocks were prepared in 100% PEG 300 at drug concentrations of 33-56 mg/mL at 60° C. as follows.
M4N bulk drug was solubilized to concentrations of 33, 44, 48, 52, 55 and 56 mg/mL (w/w) in PEG 300 using the procedure set forth in Examples 14 and 17, following incubation of at least 2 hours at 60° C. Vigorous vortexing and mixing were necessary for complete solubilization of M4N above 44 mg/mL. The M4N stock solutions were filtered through a 0.45 μm SFCA filter and used within 30 minutes of preparation. Separately, a solution of 40% (w/v) HP-β-CD was prepared in sterile WFI and filtered. Combinations of the 40% HP-β-CD stock and the M4N/PEG 300 stocks were combined in 1.5 mL polypropylene microtubes.
The requisite amount of M4N stock was added to 40% HP-β-CD to yield the final concentrations of drug and excipients listed in Table 28. Samples were gently rotated (˜12 rpm) at room temperature. At 2 and 24 hours of incubation, samples were centrifuged 2 minutes at 13,000 rpm and 50 μL aliquots were removed for RP-HPLC analysis.

SMILES: COc1ccc(C[C@@H](C)[C@@H](C)Cc2ccc(OC)c(OC)c2)cc1OC [Formulation M4N, meso-1,4-bis(3,4-dimethoxyphenyl)-2,3-dimethylbutane]
- M4N solubility ([1]; 14% EtOH, 30% PG, 40% Glyc, 10% T80, 6% DMA, 2 hrs, room temperature): 850 µg/mL
- M4N solubility ([1]; 14% EtOH, 30% PG, 40% PEG300, 10% T80, 6% DMA, 2 hrs, room temperature): 9400 µg/mL
- M4N solubility ([1]; 18% EtOH, 30% PG, 40% Glyc, 10% T80, 2% Benz, 2 hrs, room temperature): 580 µg/mL
- M4N solubility ([1]; 24% EtOH, 30% PG, 30% PEG300, 10% T80, 6% DMA, 48 hrs, room temperature): 10670 µg/mL
- M4N solubility ([1]; 44% EtOH, 50% Glycerol, 6% DMA, 24 hrs, room temperature): 1900 µg/mL
- M4N solubility ([1]; 44% EtOH, 50% PG, 6% DMA, 2 hrs, room temperature): 4800 µg/mL
- M4N solubility ([1]; 44% EtOH, 50% T80, 6% DMA, 48 hrs, room temperature): 23000 µg/mL
- M4N solubility ([1]; 50% EtOH, 50% Glycerol, 48 hrs, room temperature): 1600 µg/mL
- M4N solubility ([1]; 50% EtOH, 50% PEG300, 2 hrs, room temperature): 10940 µg/mL
- M4N solubility ([1]; 50% EtOH, 50% T80, 48 hrs, room temperature): 19680 µg/mL
- M4N solubility ([1]; 50% PG, 50% Crem, 48 hrs, room temperature): 7200 µg/mL
- M4N solubility ([1]; 50% PG, 50% Glycerol, 2 hrs, room temperature): 130 µg/mL
- M4N solubility ([1]; 50% PG, 50% Glycerol, 24 hrs, room temperature): 480 µg/mL
- M4N solubility ([1]; 50% PG, 50% Glycerol, 48 hrs, room temperature): 510 µg/mL
- M4N solubility ([1]; 50% PG, 50% PEG300, 48 hrs, room temperature): 5300 µg/mL
- M4N solubility ([1]; 100% EtOH, 2 hrs, room temperature): 7200 µg/mL
- M4N solubility ([1]; 100% Glycerol, 2 hrs, room temperature, XXX: not detectable): XXX
- M4N solubility ([1]; 100% Glycerol, 24 hrs, room temperature): 80 µg/mL
- M4N solubility ([1]; 100% Glycerol, 48 hrs, room temperature, XXX: not detectable): XXX
- M4N solubility ([1]; 100% PG, 2 hrs, room temperature): 1100 µg/mL
- solubility of M4N ([1]; glycerol, 2 hours, room temperature): not detectable
- solubility of M4N ([1]; glycerol, 48 hours, room temperature): not detectable
- solubility of M4N ([1]; more than 20 formulation conditions using water miscible organic solvents): greater than 10 mg/mL
- solubility of M4N ([1]; over half of the water miscible organic solvent formulation conditions examined): greater than 10 mg/Ml
- change in solubility / stability after 24 hours incubation at room temperature [2]: little if any changes; also recorded: stable
